# Structures can show the parent of a compound that is named as a salt. This is one part of the list. This data set is noisy: repeats of one test often differ as much as different tests do.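 In a drug-repurposing library screen, luminescence reads luciferase driven by eight TEAD-binding elements, stably integrated into human kidney-derived cells. Compounds scoring over five robust Z scores above the plate mean are called hits.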
# Test system: HEK293A TEAD-LUC reporter
# Experiment: TEAD-luciferase reporter activity (YAP activation), robust Z score vs plate; higher = stronger YAP/TEAD activation
# Conditions: 24 h
Structure (SMILES),TEAD-luciferase reporter activity (compound concentration: 200 nM),TEAD-luciferase reporter activity (compound concentration: 2 uM),TEAD-luciferase reporter activity (compound concentration: 10 uM)
[Cl][Ti]([Cl])([CH]1C=CC=C1)[CH]1C=CC=C1 [Titanocene dichloride],inactive: 0.846,inactive: 0.576,inactive: 1.1
Cc1ccc(S(=O)(=O)N[C@@H](CNC(=O)c2cc3n(n2)CCCN(CCC2CCNCC2)C3=O)C(=O)O)cc1,inactive: -1.25,inactive: 0.516,inactive: 0.443
O=C(O)c1cc(O)c(O)c(O)c1 [gallic acid],inactive: -0.207,inactive: -1.63,inactive: -0.695
COc1nc(NCCc2ccc(Cl)cc2Cl)cc(-c2cccc(C(C)(C)C(=O)O)c2)n1,inactive: -0.277,inactive: 0.368,inactive: 4.31
CNC(=O)c1ccc(Oc2ccc3c(c2)CCN(C2CCC2)C3)nc1,inactive: -1.74,inactive: -0.825,inactive: 0.14
CC1CCC(O)C/C1=C\C=C1/CCCC2(C)C1CCC2C(C)/C=C/C(C)C(C)C (stereo unspecified),inactive: -0.0413,inactive: -1.89,inactive: -1.17
CCNC(C)CN1CCc2c(c(=O)oc3ccccc23)C1 (stereo unspecified),inactive: -1.06,inactive: -0.123,inactive: -1.47
N#CN/C(=N\CCCCCCOc1ccc(Cl)cc1)Nc1ccncc1,inactive: -1.18,inactive: 4.39,active: 18.6
c1ccc(-c2cc(-c3ccncc3)c(N3CCN(c4ncccn4)CC3)nn2)cc1,inactive: -1.05,inactive: -1.18,inactive: -0.278
COCCCC(NC(=O)[C@@H]1CCCN1C(=O)[C@@H](Cc1ccccc1)NC(=O)OCc1ccccc1)B1OC(C)(C)C(C)(C)O1 (stereo partly specified),inactive: -0.692,inactive: -0.481,inactive: -1.34
O=C(CO)N1CCC(c2[nH]nc(-c3ccc(Cl)cc3F)c2-c2ccncn2)CC1,inactive: -1.09,inactive: -1.05,inactive: 2.39
COc1cccc(OCc2cc(C)ccn2)c1-c1ccc2c(c1)CCNCC2,inactive: -0.931,inactive: -0.566,inactive: 1.94
CCN(CC)CCCN1c2ccccc2Sc2ccc(Cl)cc21 [Chlorproethazine HCl],inactive: -0.523,inactive: -0.0718,inactive: 0.66
CN1CCN(C2CCN(C(=O)[C@H](CC(=O)N3CCC(N4CCc5ccccc5NC4=O)CC3)Cc3cc(Cl)c(N)c(C(F)(F)F)c3)CC2)CC1,inactive: -0.892,inactive: -0.955,inactive: -0.575
CC(C)(C)NC[C@@H](O)COc1ccccc1C1CCCC1 [penbutolol],inactive: -1.74,inactive: -0.566,inactive: 3.36
COc1ccc2c(c1)[C@]1(CC1c1ccc3c(/C=C/c4ccc(CN5C[C@@H](C)O[C@@H](C)C5)cc4)n[nH]c3c1)C(=O)N2 (stereo partly specified),inactive: 0.152,inactive: -0.0429,inactive: 2.41
O=[N+]([O-])c1nccn1CC(O)CN1CCCCC1 (stereo unspecified) [Pimonidazole],inactive: 1.47,inactive: -0.484,inactive: -0.0898
CO/N=C1/CN(c2nc3c(cc2F)c(=O)c(C(=O)O)cn3C2CC2)CC1CN (stereo unspecified) [Gemifloxacin mesilate],inactive: 1.23,inactive: -0.233,inactive: -0.267
Oc1cc(O)c2c(c1)O[C@H](c1ccc3c(c1)OC(c1ccccc1)(c1ccccc1)O3)[C@@H](O)C2,inactive: -0.789,inactive: -0.34,inactive: -1.51
CNC(=O)c1ccc2c(c1)CCO[C@H]2CCN1CCN(c2ccc(OC)cc2)CC1,inactive: -0.993,inactive: 3.78,inactive: -0.674
NC(=O)c1ccc(F)c2c1C[C@@H](N(C1CCC1)C1CCC1)CO2 [Robalzotan tartrate hydrate],inactive: -1.11,inactive: 0.862,inactive: -1.2
C#CCNC(=O)C1CCCN(c2nc3ncccc3o2)C1 (stereo unspecified),inactive: -0.00101,–,inactive: -0.189
COCC12CN(S(=O)(=O)c3ccc4cc(Cl)ccc4c3)CC(=O)N1CC1(CCN(c3ccncc3)CC1)O2 (stereo unspecified),inactive: 0.561,inactive: -0.11,inactive: -0.59
COc1cc2c(cc1OC)CCN(CCc1ccc(N)cc1)CC2 [verilopam],inactive: -0.978,inactive: -0.831,inactive: 0.577
Brc1ccc(C(Cn2ccnc2)c2ccccc2)cc1 (stereo unspecified),inactive: -1.43,inactive: -0.939,inactive: 1.37
CN(C)CCCNc1c(C#N)[n+]([O-])c2cc(Cl)ccc2[n+]1[O-],inactive: -0.88,–,inactive: 1.24
CC(=O)Nc1cccc2c1c(Sc1ccc(Cl)cc1)c(C)n2CC(=O)O,inactive: -0.773,inactive: -0.177,inactive: -2.97

# 4 successive entries from above, quoted:
Structure (SMILES),TEAD-luciferase reporter activity (compound concentration: 200 nM),TEAD-luciferase reporter activity (compound concentration: 2 uM),TEAD-luciferase reporter activity (compound concentration: 10 uM)
C#CCNC(=O)C1CCCN(c2nc3ncccc3o2)C1 (stereo unspecified),inactive: -0.00101,–,inactive: -0.189
COCC12CN(S(=O)(=O)c3ccc4cc(Cl)ccc4c3)CC(=O)N1CC1(CCN(c3ccncc3)CC1)O2 (stereo unspecified),inactive: 0.561,inactive: -0.11,inactive: -0.59
COc1cc2c(cc1OC)CCN(CCc1ccc(N)cc1)CC2 [verilopam],inactive: -0.978,inactive: -0.831,inactive: 0.577
Brc1ccc(C(Cn2ccnc2)c2ccccc2)cc1 (stereo unspecified),inactive: -1.43,inactive: -0.939,inactive: 1.37

# (listing goes on)

Structure (SMILES),TEAD-luciferase reporter activity (compound concentration: 200 nM),TEAD-luciferase reporter activity (compound concentration: 2 uM),TEAD-luciferase reporter activity (compound concentration: 10 uM)
COc1ccc(C(=O)NCCCCN2CCN(c3csc4cc(C(F)(F)F)ccc34)CC2)cc1,inactive: -1.51,inactive: -0.115,inactive: 3.78
Cc1nc2n(c(=O)c1CCN1CCC(c3noc4cc(F)ccc34)CC1)CCCC2 [risperidone 4wk long-acting injection (IM)],–,inactive: -2.88,–
Cc1nc2n(c(=O)c1CCN1CCC(c3noc4cc(F)ccc34)CC1)CCCC2,inactive: -0.967,–,inactive: -0.0159
FC(F)(F)C(F)(F)C(F)(F)C(F)(F)C(F)(F)C(F)(F)C(F)(F)C(F)(F)Br [Imagent BP],inactive: -0.392,inactive: -0.332,inactive: -0.73
C=C[C@H]1C[C@]1(NC(=O)[C@@H]1C[C@@H](Oc2ncc(OC)c3ccc(Cl)cc23)CN1C(=O)[C@@H](NC(=O)OC(C)(C)C)C(C)(C)C)C(=O)NS(=O)(=O)C1CC1 [asunaprevir],inactive: -0.196,inactive: -0.583,inactive: -0.126
Cc1c2oc3c(C)ccc(C(=O)NC4C(=O)NC(C(C)C)C(=O)N5CCCC5C(=O)N(C)CC(=O)N(C)C(C(C)C)C(=O)OC4C)c3nc-2c(C(=O)NC2C(=O)NC(C(C)C)C(=O)N3CCCC3C(=O)N(C)CC(=O)N(C)C(C(C)C)C(=O)OC2C)c(N)c1=O (stereo unspecified) [dactinomycin],–,inactive: -3.14,–
Cc1c2oc3c(C)ccc(C(=O)NC4C(=O)NC(C(C)C)C(=O)N5CCCC5C(=O)N(C)CC(=O)N(C)C(C(C)C)C(=O)OC4C)c3nc-2c(C(=O)NC2C(=O)NC(C(C)C)C(=O)N3CCCC3C(=O)N(C)CC(=O)N(C)C(C(C)C)C(=O)OC2C)c(N)c1=O (stereo unspecified) [Actinomycin D],inactive: -0.875,–,inactive: -0.767
CC[C@@H](COC(=O)c1cc(OC)c(OC)c(OC)c1)N(C)CCN(C)[C@@H](CC)COC(=O)c1cc(OC)c(OC)c(OC)c1,inactive: -1.07,inactive: 1.93,inactive: -0.281
Cc1cnc(C[S@@+]([O-])c2nc3ccccc3[nH]2)c(C)c1OCC1COC(C)(C)OC1,inactive: -0.144,inactive: -0.345,inactive: 2.6
CC1(C)S[C@@H]2[C@H](NC(=O)C(C(=O)[O-])c3ccccc3)C(=O)N2[C@H]1C(=O)[O-] (stereo partly specified) [Carbenicillin (disodium)],inactive: -0.337,inactive: -0.214,inactive: -0.707
NC(Cc1ccccc1)C(=O)O (stereo unspecified),inactive: -0.57,–,inactive: 0.926
O=C1O[C@@H](Cc2ccccc2)CN1[C@H](CCN1CCOCC1)c1ccccc1,inactive: -0.917,inactive: 0.0516,inactive: 0.123
CCCN1CCCCC12Cc1ccccc1CN(C(=O)CC)C2 (stereo unspecified),inactive: 1.97,–,inactive: -1.13
CC[N+](CC)(CC)CC(=O)Nc1c(C)cccc1C [Lidocaine N-ethyl bromide quaternary salt],inactive: 0.159,–,inactive: 2.85
CC[N+](CC)(CC)CC(=O)Nc1c(C)cccc1C,–,inactive: 0.121,–
CCN(CC)CCCC(C)Nc1cc(OC)cc2cccnc12 (stereo unspecified),inactive: -1.85,inactive: -2.07,inactive: -0.344
CN1CCCCC12Cc1ccccc1CN(C(=O)CCCC(=O)O)C2 (stereo unspecified),inactive: -0.7,–,inactive: 0.801
N#Cc1ccc(Oc2ccc3c(c2)COB3O)c(O)c1,inactive: -0.0539,inactive: -1.28,inactive: -0.813
C=CC(=O)N1CCC(CNc2ncnc(N)c2-c2ccc(Oc3ccccc3)cc2)CC1 [Evobrutinib],inactive: -1.45,–,inactive: -0.124
COC(=O)CCN1C(=O)NC(Cc2ccccc2)(c2ccccc2)C1=O (stereo unspecified),inactive: 0.65,inactive: 0.114,inactive: 1.05
N=C(N)c1ccc(/C=C/c2ccc(C(=N)N)cc2O)cc1 [Hydroxystilbamidine bis(methanesulfonate],inactive: 0.99,–,inactive: 0.768
CC(C)=CCOc1cc(NC(=O)c2cccnc2)ccc1Cl,inactive: -0.808,inactive: -0.828,inactive: 1.81
Cc1nc(N(C)C(=O)Cc2ccc(-c3ccccn3)cc2)sc1S(N)(=O)=O,inactive: 0.55,inactive: 0.226,inactive: 1.76
Cc1nc(N(C)C(=O)Cc2ccc(-c3ccccn3)cc2)sc1S(N)(=O)=O [Pritelivir],–,inactive: -2.12,–
CC(COc1ccccc1)N[C@@H](CO)[C@H](O)c1ccccc1 (stereo partly specified),inactive: -0.0751,inactive: -0.333,inactive: 2.53
N=C(NC(N)=O)Nc1c(Cl)cccc1Cl [Biclodil],inactive: -0.823,inactive: 1.02,inactive: -1.55

# From the supplement of paper PMC10735217
